Data on one sequence can be found in article PMC12261106.

The exact form of at least one protein or probe is not confirmed.

The series has as its system LcRAP2.4 (Litchi chinensis Sonn.). The experiment in a line: EMSA. Particulars: LightShift Chemiluminescent EMSA kit, nondenaturing polyacrylamide gel; pH and temperature not stated; recombinant protein; protein details: GST (pGEX-4T, N-terminal).

As to “TCTTGAGGACGGCAAAGGTCGGTGTCGGTGATGTTTGAAC (double strand) [LcPIP1;4 promoter DRE/CRT probe]”, the binding result is “binds”.
